Data from the supplement of paper PMC10849652.
Some of the results follow.

Protein sequences, listed by entry. Tags and fused reporters are not part of them. Lines headed by an entry give the natural chain unless they say otherwise; changes in a name come on top.
UniProt Q96LL9: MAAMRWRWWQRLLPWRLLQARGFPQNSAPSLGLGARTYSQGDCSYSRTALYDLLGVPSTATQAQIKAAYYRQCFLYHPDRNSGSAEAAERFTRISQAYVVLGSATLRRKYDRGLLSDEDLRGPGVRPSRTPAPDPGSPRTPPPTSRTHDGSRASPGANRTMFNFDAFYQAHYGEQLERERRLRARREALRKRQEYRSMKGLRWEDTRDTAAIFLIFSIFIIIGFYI
UniProt Q14195, whole entry, looked up: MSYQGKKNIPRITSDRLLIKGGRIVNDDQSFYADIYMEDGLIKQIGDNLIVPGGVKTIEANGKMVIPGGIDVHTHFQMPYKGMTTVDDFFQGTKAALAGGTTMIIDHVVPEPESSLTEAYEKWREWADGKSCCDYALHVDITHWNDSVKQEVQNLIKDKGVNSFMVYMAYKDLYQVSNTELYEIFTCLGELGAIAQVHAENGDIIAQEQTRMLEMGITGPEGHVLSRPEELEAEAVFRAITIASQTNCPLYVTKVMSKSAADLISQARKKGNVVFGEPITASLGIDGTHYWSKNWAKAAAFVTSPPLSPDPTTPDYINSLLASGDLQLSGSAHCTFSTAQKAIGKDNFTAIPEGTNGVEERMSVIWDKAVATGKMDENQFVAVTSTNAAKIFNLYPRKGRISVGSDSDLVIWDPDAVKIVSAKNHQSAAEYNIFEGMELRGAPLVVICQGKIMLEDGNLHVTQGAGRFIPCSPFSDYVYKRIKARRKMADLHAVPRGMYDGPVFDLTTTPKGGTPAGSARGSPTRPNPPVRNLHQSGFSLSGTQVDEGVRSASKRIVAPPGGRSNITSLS
UniProt Q8WTR2: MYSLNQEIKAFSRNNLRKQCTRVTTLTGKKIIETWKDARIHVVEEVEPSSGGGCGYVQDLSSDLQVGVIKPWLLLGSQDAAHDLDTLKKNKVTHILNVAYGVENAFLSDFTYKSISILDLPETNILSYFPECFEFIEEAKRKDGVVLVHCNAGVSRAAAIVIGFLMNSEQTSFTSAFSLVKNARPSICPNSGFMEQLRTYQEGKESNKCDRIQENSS
UniProt Q9NNZ3: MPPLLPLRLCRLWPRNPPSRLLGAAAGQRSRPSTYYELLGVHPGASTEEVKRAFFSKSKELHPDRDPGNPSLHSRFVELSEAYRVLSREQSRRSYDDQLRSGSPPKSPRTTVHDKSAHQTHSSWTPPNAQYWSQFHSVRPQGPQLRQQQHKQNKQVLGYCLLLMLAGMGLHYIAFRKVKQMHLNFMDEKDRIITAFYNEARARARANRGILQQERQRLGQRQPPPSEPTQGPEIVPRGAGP
UniProt Q9Y3R5: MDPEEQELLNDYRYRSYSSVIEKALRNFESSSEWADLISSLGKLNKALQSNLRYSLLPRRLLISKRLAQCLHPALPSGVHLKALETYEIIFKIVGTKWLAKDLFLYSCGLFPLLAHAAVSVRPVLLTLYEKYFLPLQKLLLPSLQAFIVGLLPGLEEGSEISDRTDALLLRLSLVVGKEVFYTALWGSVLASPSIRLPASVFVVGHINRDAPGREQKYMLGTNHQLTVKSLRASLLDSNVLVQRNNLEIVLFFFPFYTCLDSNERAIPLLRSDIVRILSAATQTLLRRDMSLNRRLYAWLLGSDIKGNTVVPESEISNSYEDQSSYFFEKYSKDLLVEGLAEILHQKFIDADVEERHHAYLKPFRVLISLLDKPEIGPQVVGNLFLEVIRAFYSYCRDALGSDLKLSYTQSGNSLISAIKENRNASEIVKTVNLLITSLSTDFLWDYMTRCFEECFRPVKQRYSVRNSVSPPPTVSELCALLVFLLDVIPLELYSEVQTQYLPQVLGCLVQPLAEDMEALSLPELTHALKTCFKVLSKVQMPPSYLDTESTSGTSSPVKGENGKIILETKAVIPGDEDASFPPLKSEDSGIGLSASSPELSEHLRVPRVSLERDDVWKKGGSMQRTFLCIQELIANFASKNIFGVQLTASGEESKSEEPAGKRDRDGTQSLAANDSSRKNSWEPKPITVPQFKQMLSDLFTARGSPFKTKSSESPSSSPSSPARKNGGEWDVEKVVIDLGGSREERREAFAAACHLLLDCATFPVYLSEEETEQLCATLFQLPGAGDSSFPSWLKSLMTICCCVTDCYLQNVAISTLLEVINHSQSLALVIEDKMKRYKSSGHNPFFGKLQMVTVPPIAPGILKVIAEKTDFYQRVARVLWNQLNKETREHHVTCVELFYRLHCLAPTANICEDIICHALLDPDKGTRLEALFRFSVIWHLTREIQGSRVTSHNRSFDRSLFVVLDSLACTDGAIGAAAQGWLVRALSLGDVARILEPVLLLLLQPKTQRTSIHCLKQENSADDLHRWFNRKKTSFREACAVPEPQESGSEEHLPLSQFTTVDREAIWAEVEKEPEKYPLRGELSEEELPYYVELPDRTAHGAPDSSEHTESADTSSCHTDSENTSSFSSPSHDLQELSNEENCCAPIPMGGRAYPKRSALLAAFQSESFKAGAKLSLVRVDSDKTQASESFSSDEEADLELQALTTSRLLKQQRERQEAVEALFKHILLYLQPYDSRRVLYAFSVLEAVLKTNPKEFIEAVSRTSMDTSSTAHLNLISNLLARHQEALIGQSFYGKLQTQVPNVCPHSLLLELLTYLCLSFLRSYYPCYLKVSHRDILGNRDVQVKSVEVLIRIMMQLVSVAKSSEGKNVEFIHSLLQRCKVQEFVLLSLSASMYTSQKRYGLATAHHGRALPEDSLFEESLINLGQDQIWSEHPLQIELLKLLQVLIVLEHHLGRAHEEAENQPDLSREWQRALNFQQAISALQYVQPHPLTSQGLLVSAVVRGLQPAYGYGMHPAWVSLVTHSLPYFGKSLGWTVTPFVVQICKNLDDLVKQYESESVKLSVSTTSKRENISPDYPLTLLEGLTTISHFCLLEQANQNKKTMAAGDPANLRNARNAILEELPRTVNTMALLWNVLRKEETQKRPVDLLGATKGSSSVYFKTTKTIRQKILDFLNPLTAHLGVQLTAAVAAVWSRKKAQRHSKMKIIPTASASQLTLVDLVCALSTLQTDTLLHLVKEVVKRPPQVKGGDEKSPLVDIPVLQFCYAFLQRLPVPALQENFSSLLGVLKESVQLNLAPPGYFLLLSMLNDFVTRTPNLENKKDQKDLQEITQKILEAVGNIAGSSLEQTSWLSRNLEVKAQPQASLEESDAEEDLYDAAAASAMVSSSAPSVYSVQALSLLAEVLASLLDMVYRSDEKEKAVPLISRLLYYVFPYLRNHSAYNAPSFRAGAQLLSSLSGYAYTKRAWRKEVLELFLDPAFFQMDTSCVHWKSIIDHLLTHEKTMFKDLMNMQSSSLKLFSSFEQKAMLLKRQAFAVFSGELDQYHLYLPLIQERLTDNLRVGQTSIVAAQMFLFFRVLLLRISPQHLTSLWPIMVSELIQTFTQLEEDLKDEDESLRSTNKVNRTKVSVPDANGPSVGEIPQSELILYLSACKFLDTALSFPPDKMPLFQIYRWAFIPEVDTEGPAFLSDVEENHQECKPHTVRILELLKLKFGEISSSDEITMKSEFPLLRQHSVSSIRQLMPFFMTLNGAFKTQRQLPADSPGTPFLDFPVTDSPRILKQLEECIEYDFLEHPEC
UniProt Q96BY6: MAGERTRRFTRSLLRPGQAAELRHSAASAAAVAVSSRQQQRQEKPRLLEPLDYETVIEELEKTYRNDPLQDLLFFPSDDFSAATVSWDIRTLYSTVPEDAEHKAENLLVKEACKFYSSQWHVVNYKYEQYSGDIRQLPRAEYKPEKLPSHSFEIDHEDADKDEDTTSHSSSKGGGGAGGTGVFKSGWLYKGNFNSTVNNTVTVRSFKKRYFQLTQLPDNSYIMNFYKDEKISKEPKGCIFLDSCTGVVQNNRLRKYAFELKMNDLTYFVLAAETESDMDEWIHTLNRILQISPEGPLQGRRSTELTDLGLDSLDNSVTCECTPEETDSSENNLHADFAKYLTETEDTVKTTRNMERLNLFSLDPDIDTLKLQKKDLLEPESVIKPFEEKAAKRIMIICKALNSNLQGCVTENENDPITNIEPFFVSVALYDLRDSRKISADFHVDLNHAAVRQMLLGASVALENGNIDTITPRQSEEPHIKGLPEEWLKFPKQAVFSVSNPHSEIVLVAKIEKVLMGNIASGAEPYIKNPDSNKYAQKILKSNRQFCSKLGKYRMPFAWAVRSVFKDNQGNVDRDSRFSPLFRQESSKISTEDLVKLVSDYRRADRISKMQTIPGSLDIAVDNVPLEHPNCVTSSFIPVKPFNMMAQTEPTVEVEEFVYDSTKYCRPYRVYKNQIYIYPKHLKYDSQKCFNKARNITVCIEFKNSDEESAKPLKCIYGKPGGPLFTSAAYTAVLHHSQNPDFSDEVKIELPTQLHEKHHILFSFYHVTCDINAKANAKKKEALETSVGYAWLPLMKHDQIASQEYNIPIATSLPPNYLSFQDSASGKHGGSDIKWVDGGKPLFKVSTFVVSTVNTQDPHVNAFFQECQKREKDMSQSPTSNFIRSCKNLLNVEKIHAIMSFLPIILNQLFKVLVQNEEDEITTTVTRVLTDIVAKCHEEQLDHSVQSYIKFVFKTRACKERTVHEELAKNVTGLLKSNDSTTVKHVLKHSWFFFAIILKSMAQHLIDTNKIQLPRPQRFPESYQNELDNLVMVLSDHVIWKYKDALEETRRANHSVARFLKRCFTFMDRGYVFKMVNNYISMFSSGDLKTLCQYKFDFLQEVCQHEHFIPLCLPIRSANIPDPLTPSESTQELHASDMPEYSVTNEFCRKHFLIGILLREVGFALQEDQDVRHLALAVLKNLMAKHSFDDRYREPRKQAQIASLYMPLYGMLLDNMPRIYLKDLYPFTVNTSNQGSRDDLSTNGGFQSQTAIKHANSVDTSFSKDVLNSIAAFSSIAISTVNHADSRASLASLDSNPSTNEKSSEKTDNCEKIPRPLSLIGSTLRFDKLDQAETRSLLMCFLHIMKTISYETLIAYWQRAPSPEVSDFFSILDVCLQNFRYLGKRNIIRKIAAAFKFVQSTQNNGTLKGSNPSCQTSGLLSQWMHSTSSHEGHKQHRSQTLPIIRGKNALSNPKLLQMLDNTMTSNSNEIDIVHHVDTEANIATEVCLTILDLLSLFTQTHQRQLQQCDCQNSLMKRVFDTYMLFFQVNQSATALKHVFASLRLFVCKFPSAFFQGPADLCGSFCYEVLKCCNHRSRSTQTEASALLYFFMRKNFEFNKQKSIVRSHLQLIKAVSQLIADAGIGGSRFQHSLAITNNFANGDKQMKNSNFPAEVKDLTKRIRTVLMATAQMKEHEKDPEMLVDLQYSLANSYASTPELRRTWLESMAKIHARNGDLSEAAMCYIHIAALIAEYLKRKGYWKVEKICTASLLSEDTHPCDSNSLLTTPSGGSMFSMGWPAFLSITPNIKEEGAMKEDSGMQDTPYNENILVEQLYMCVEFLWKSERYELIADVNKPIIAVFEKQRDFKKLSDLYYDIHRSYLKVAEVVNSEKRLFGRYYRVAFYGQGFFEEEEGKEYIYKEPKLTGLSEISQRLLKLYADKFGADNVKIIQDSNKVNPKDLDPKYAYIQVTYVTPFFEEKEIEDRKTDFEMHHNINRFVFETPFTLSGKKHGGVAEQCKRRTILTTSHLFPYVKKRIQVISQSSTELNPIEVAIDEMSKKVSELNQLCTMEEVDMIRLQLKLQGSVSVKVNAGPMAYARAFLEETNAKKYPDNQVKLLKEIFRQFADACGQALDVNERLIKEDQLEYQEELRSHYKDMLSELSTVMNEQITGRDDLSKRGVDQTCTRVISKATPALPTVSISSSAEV
UniProt Q6NUT2: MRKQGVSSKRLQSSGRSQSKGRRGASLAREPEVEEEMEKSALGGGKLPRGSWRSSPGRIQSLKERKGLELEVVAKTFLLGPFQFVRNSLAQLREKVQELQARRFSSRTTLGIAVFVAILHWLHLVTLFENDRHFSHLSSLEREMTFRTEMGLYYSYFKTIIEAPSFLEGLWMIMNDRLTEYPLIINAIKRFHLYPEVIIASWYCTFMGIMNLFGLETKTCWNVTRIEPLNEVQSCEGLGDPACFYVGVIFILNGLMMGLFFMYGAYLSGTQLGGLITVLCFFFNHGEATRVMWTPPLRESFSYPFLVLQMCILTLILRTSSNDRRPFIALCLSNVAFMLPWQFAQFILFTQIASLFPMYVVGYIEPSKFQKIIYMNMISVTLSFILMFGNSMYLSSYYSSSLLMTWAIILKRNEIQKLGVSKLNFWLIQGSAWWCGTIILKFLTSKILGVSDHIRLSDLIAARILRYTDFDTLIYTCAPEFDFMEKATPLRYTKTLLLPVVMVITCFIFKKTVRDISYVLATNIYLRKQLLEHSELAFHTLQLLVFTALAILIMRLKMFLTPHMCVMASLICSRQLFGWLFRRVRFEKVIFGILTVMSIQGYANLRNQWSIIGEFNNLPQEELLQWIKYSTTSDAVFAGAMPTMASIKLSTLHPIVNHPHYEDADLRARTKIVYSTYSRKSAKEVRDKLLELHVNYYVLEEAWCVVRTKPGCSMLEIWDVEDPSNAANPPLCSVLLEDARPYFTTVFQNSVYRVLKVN

Legend:
Experiment in all cases: log2 fold change, soluble protein after heating vs DMSO (PISA); higher = thermal stabilisation; K562 cells, 10 uM, 30 min; active = over 0.2 and 3.5 SD of the protein, either way, in both replicates (recomputed)
[1] = compound: C#Cc1cccc(Nc2ncnc3cc(OCCOC)c(OCCOC)cc23)c1 [erlotinib]
Outline: (§1)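 Soluble protein was defined as the supernatant after 21,000xg for 90 min. It came from K562 cells at 2×10^6 cells/mL given 10 μM compound for 30 min, heated in aliquots for 3 min across 48°C-58°C, pooled, and extracted in PBS with 0.5% NP-40 at 4°C, and was quantified by TMTpro 16plex LC-MS/MS with equalised channel sums. Thermal stability against control samples, from duplicates, is reported as log2 fold change.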

[2] = compound: C/C(=N\NC(=O)C1=CC(=CC=C1)S(=O)(=O)N2CCOCC2)/C3=C(C=CC(=C3)Cl)O
Outline: as §1

[3] = compound: C1=CC(=C(C=C1Cl)C2=NC3=NC=CN=C3C(=N2)NC4=CC=NC=C4)F
Outline: as §1

[4] = compound: C1=CC(=CC=C1C2=NC3=C(N2)C=C(C=C3)C(=O)N)OC4=CC=C(C=C4)Cl
Outline: as §1

[5] = compound: C1=CC2=C(C=CC(=C2)/C=C\3/C(=O)NC(=NCC4=CC=CS4)S3)N=C1
Outline: as §1

[6] = compound: C1=CC2=NC=CN=C2C=C1/C=C/3\C(=O)NC(=O)S3
Outline: as §1

[7] = compound: C1=CC=C(C=C1)C2=NC(=C(N2)C3=CC=NC=C3)C4=CC(=C(C=C4)Cl)O
Outline: as §1

[8] = compound: C1=CC=C2C(=C1)C3=NNC4=CC=CC(=C43)C2=O
Outline: as §1

[9] = compound: C1CCN(C1)C(=O)NC2=CC=CC(=C2)NC3=NC=C(C(=N3)NCCC4=CN=CN4)Br
Outline: as §1

[10] = compound: C1CN(CCC1(CC2=CC=C(C=C2)Cl)N)C3=NC=NC4=C3C=CN4
Outline: as §1

Measured: log2 fold change

DNAJC12 (UniProt Q9UKB3)
inactive: [1] -0.023 | [2] 0.007 | [3] 0.01 | [4] -0.023 | [5] 0.026 | [6] 0.023 | [7] -0.021 | [8] -0.042 | [9] -0.006 | [10] -0.008

DNAJC30 (UniProt Q96LL9)
inactive: [1] -0.034 | [2] -0.151 | [4] 0.016 | [5] -0.073 | [8] -0.01

DRAP1 (UniProt E9PQX9)
inactive: [1] 0.304 | [2] -0.398 | [4] -0.078 | [5] 0.101 | [8] -0.057 | [9] 0.004 | [10] 0.105

DPF2 (UniProt Q92785)
inactive: [1] -0.007 | [2] -0.065 | [3] -0.135 | [4] 0.04 | [5] 0.044 | [6] 0.211 | [7] -0.01 | [8] -0.083 | [9] 0.09 | [10] 0.089

DYNLT1 (UniProt P63172)
inactive: [1] -0.149 | [2] -0.028 | [4] 0.128 | [5] 0.036 | [6] -0.035 | [7] -0.01 | [8] -0.069 | [9] -0.043 | [10] 0.091

EDRF1 (UniProt Q3B7T1)
inactive: [1] 0.066 | [3] -0.038 | [4] -0.119 | [6] -0.017 | [7] -0.033

DPYSL2 (UniProt Q16555)
inactive: [1] -0.02 | [2] -0.104 | [3] 0.099 | [4] 0.072 | [5] 0.074 | [6] 0.003 | [8] 0.055 | [9] -0.044 | [10] 0.14

ECHDC3 (UniProt Q96DC8)
inactive: [1] 0.035 | [3] -0.154 | [4] -0.04 | [6] 0.014 | [7] 0.022 | [9] 0.119 | [10] -0.04

DPYSL3 isoform 2 (UniProt Q14195)
inactive: [1] 0.02 | [4] -0.08

DUSP19 (UniProt Q8WTR2)
inactive: [1] 0.068 | [4] 0.05

DNAJC4 (UniProt Q9NNZ3)
inactive: [7] -0.028

DOCK2 (UniProt Q92608)
inactive: [7] 0.19

DUSP12 (UniProt V9GYV5)
inactive: [3] -0.034

DNPEP (UniProt C9JBE1)
inactive: [1] -0.021 | [3] -0.052 | [4] -0.019 | [6] -0.01 | [9] -0.005 | [10] -0.14

DNAJB1 (UniProt M0R128)
inactive: [6] -0.105 | [9] 0.142 | [10] 0.133

DUS1L (UniProt Q6P1R4)
inactive: [1] -0.223 | [4] 0.068 | [7] 0.077 | [9] -0.126 | [10] -0.094

DNAJB2 (UniProt P25686)
inactive: [3] -0.005 | [7] -0.126

DOP1B (UniProt Q9Y3R5)
inactive: [3] 0.054 | [6] 0.079 | [7] -0.1 | [9] 0.154 | [10] -0.112

DPCD (UniProt Q9BVM2)
inactive: [2] 0.216 | [5] 0.082 | [8] 0.049

E2F3 (UniProt O00716)
inactive: [1] 0.017 | [3] -0.09 | [4] 0 | [6] -0.002 | [7] 0.037 | [9] -0.002 | [10] 0.036

DYNLT3 (UniProt P51808)
inactive: [2] -0.005 | [5] -0.15 | [6] -0.029 | [8] -0.103

DNAJC24 (UniProt Q6P3W2)
inactive: [1] -0.114 | [3] 0.123 | [4] 0.062 | [6] -0.053 | [7] -0.084 | [9] -0.047 | [10] -0.158

Quoted at random: 2 entries already listed, in no set order.
DYNLT3 (UniProt P51808)
inactive: [2] -0.005 | [5] -0.15 | [6] -0.029 | [8] -0.103

DNAJC24 (UniProt Q6P3W2)
inactive: [1] -0.114 | [3] 0.123 | [4] 0.062 | [6] -0.053 | [7] -0.084 | [9] -0.047 | [10] -0.158

Further results follow:

E4F1 (UniProt H3BN24)
inactive: [7] 0.084

DOCK10 (UniProt Q96BY6)
inactive: [7] -0.07 | [9] 0.132 | [10] 0.163

DSTYK (UniProt Q6XUX3)
inactive: [1] 0.09 | [3] -0.076 | [4] 0 | [6] 0.106 | [9] -0.02 | [10] 0.001

DPY19L2 (UniProt Q6NUT2)
inactive: [2] -0.032 | [5] -0.019 | [6] 0.075 | [8] 0.174 | [9] -0.019 | [10] -0.017

DYM (UniProt Q7RTS9)
inactive: [1] -0.014 | [3] 0.03 | [4] 0.065 | [6] -0.05 | [7] 0.213 | [9] -0.1 | [10] -0.01

ECM1 isoform 2 (UniProt Q16610)
inactive: [2] 0.007 | [5] 0.499 | [6] -0.285 | [8] -0.283 | [9] 0.007 | [10] -0.301

ECT2 isoform 3 (UniProt Q9H8V3)
inactive: [3] -0.12 | [7] 0.067
